Source: patent publication US5212286A, “Atrial Natriuretic/vasodilator peptide compounds” (Scios Nova Inc., priority 1986, dated 1993)
At least one peptide structure holds a part that was inferred or is arguable (an end, a ring closure or a residue).

Key:
isolated rat kidney = assay: Renal function in the isolated perfused rat kidney; conditions: dose 1 μg; experimental period E; mean of 3-8 experiments
[1] = system: precontracted rabbit or rat aortic preparations; assay: Vasorelaxant potency on precontracted aortic rings; conditions: thoracic aortic segments precontracted with histamine or norepinephrine; read-out: IC50 (concentration producing half-maximal relaxation of the precontracted tissue)
Method: Synthetic ANVP compounds were compared to partially purified (gel filtration step) and purified (HPLC) native ANVP compounds (See FIGS. 3A-D) for their ability to relax histamine-contracted aortic rings. Rings were suspended in 10 ml aerated Kreb's buffer under 1.5 gm passive tension. Rings were precontracted with 5 X 10^-6 M histamine, washed and allowed to return to baseline tension, as described ([…]., supra). Increasing amounts of purified or synthetic ANVP compounds were then added in cumulative fashion. […] The relaxation effects of various ANVP compounds on precontracted rabbit or rat aortic preparations are shown in Table III. | Thoracic aortic segments were precontracted with histamine or | norepinephrine as previously described. Various doses of ANVP compounds | were then added and relaxation of the precontracted state was monitored. | Data are expressed as the concentration of each peptide required to | produce a halfmaximal relaxation of the precontracted tissue (IC50).

[2] = system: rabbit thoracic aortic rings; assay: Relaxation of histamine-contracted rabbit thoracic aortic rings; conditions: rings precontracted with histamine; cumulative addition
Method: Synthetic ANVP compounds were compared to partially purified (gel filtration step) and purified (HPLC) native ANVP compounds (See FIGS. 3A-D) for their ability to relax histamine-contracted aortic rings. Rings were suspended in 10 ml aerated Kreb's buffer under 1.5 gm passive tension. Rings were precontracted with 5 X 10^-6 M histamine, washed and allowed to return to baseline tension, as described (Kleinert, H. D., supra). Increasing amounts of purified or synthetic ANVP compounds were then added in cumulative fashion.
The dried methanol soluble and ammonium acetate eluted material was resolubilized in 0.5 ml of distilled H2 O and tested for biological activity using the precontracted rabbit thoracic aortic ring model described in Kleinert, et al., Hypertension 6:Suppl. 1:143-146 (1984). Equal volumes of material reconstituted from crude lyophilized media, methanol soluble protein or protein eluted from SP-Sephadex® with 1.0 M ammonium acetate were compared using aortic rings precontracted with 5 μM histamine. Material synthesized by yeast cultures whose plasmids encoded proANVP (amino acids 26-152) (YEp-α-NF-9) and proANVP (amino acids 121-152) (YEp-α-NF-5), as well as the corresponding inverse orientations (YEp-α-NF-12 and YEp-α-NF-7, respectively), were compared.
A fraction of the crude bacteria extract was subsequently boiled for 5 minutes and lowered to pH 2.5 for 1 hour. […]

[3] = system: ANVP receptor sites on cultured bovine vascular smooth muscle cells; assay: Displacement of specific [125I]rANVP(126-150) binding on cultured smooth muscle cells; conditions: concentration of half-maximal displacement
From the text: Specific and saturable binding is a necessary component of a hormone/receptor interaction.
Various concentrations of the peptides described were examined for […]

intact rats = assay: Natriuretic and diuretic effects in intact rats (bolus injection); assay type: in vivo, rat
Method: Synthetic ANVP compounds […] hANVP(127-151) were also found to be natriuretic in the intact rat. These compounds were administered as a bolus injection to Inactin anesthetized rats (100 mg/kg, average weight 399 g) which were maintained on a constant infusion of normal saline at 2.2 ml/hr. […] Data are expressed as mean±SE.

CC[C@H](C)[C@@H]1NC(=O)[C@H](CCCNC(=N)N)NC(=O)[C@H](CC(=O)O)NC(=O)[C@H](CCSC)NC(=O)[C@H](CCCNC(=N)N)NC(=O)CNC(=O)CNC(=O)[C@H](Cc2ccccc2)NC(=O)[C@@H](NC(=O)[C@H](CO)NC(=O)[C@H](CO)NC(=O)[C@@H](N)CCCNC(=N)N)CSSC[C@@H](C(=O)N[C@@H](CC(N)=O)C(=O)N[C@@H](CO)C(=O)N[C@@H](Cc2ccccc2)C(=O)N[C@@H](CCCNC(=N)N)C(=O)N[C@@H](Cc2ccc(O)cc2)C(=O)O)NC(=O)CNC(=O)[C@H](CC(C)C)NC(=O)CNC(=O)[C@H](CO)NC(=O)[C@H](CCC(N)=O)NC(=O)[C@H](C)NC(=O)CNC1=O [hANVP(127-151)]
.V (urine flow rate) (isolated rat kidney): 142.3 µL/min
GFR (isolated rat kidney): 0.94 mL/min
UNa.V (urinary sodium excretion rate) (isolated rat kidney): 8.6 μEq/min
IC50 [1]: 0.92 nM
relaxation of histamine-contracted aortic rings, comparison in words (FIG. 8) [2]: equivalent to rANVP(126-150)
Ki ([3]; Series A smooth muscle cells): 0.5 nM
Ki ([3]; Series B smooth muscle cells): 1.12 nM
natriuretic in the intact rat, in words (intact rats; bolus injection, Inactin anesthetized rats): natriuretic
Peak Na+ Excr. (intact rats; dose 460 pmol/kg): 15.5 µmol/min
Peak Urine Vol. (intact rats; dose 460 pmol/kg): 83 µL/min
